Here are results for 8 molecules from PMC5717138.

Chains of the proteins cited; added tags and fusions are not shown.
UniProt Q9NZJ0: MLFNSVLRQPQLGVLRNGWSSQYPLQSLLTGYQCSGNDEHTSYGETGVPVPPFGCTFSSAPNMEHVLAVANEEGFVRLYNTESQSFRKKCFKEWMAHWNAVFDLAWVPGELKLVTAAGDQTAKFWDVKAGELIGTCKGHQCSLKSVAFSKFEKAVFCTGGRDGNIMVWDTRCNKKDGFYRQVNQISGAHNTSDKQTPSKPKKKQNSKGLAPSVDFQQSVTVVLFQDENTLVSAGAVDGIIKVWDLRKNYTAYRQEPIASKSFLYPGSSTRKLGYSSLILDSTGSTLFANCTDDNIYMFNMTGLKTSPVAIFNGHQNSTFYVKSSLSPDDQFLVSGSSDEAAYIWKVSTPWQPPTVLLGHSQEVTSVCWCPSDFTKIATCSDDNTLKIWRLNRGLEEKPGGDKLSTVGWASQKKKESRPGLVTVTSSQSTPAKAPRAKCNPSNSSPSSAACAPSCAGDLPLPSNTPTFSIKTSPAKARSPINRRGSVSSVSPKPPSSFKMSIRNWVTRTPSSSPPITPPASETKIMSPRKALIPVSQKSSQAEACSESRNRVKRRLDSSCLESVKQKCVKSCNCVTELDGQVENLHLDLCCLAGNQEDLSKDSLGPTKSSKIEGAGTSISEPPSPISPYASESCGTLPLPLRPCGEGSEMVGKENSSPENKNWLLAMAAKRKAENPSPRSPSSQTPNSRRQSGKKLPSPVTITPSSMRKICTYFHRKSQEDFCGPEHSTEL
UniProt Q13619: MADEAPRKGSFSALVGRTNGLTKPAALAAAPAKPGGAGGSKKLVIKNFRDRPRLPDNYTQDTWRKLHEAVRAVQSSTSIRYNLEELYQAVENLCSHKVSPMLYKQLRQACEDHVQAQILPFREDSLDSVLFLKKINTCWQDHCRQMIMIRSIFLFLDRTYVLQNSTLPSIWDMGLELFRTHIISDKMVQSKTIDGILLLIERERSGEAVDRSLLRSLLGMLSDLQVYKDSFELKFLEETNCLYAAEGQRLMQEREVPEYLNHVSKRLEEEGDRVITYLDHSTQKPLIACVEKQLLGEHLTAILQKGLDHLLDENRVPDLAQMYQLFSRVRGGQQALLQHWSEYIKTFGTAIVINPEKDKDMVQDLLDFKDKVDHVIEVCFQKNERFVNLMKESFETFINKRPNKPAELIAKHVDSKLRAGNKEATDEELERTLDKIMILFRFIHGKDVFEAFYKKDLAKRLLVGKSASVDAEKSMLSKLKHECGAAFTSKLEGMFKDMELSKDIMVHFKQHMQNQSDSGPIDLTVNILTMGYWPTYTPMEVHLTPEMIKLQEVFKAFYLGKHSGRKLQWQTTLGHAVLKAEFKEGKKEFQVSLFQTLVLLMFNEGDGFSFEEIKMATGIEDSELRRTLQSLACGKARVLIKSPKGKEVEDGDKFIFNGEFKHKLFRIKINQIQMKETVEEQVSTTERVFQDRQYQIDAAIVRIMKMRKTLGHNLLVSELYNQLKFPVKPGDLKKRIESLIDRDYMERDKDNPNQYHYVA
UniProt Q16531: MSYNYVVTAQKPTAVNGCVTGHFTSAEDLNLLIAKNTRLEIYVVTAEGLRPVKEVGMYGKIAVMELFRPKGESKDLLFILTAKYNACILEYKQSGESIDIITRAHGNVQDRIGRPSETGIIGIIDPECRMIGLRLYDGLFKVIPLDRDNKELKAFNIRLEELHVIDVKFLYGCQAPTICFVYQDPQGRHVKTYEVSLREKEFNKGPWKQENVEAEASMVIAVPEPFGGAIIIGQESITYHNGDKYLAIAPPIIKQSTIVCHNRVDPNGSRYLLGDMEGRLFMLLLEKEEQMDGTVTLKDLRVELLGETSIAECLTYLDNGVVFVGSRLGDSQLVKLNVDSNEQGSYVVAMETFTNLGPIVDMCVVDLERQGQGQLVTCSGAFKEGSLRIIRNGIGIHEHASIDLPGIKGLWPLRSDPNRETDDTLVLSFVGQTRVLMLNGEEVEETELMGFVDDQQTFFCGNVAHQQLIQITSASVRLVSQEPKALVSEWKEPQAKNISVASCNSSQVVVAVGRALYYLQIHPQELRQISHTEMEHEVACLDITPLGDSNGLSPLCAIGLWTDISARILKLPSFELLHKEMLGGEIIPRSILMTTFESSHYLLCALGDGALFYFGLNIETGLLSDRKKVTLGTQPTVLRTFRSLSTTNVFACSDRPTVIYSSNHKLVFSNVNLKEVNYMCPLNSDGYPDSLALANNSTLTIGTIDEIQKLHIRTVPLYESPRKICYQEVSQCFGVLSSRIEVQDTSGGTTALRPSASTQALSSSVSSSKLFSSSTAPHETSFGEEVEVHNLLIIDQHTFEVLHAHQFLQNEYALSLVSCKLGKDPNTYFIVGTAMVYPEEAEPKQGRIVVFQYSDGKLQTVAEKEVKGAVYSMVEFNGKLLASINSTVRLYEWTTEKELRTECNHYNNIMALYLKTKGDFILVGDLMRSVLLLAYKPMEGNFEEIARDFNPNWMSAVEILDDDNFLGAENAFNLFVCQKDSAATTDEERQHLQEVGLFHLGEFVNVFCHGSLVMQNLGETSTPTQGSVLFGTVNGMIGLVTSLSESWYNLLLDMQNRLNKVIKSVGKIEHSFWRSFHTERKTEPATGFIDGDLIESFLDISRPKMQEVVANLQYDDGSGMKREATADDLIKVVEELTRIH
UniProt Q00987: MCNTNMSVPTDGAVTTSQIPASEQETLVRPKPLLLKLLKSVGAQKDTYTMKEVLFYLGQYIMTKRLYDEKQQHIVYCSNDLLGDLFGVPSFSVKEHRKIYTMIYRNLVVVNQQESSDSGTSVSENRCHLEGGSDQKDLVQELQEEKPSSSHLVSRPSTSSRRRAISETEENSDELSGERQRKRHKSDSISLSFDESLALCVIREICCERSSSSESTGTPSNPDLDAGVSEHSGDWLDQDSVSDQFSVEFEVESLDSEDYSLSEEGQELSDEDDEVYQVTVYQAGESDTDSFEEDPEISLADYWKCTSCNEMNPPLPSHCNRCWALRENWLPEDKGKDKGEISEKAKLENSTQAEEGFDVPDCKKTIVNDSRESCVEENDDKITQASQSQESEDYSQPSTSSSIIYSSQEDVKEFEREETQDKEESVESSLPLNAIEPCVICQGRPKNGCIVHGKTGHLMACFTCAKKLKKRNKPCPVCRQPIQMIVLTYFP

One experiment concerns the target Flag-CDT2 (UniProt Q9NZJ0). In words: co-IP; Flag-CDT2, Myc-Cul4A, Myc-DDB1 and Myc-RBX1 co-transfected into HEK293T; held on Flag M2 agarose beads, washed with HEPES buffer, eluted with Flag peptide.
Experiment [1] concerns the target T1, GFP-Polη T457A (human) (UniProt Q9Y253).
T1 sequence: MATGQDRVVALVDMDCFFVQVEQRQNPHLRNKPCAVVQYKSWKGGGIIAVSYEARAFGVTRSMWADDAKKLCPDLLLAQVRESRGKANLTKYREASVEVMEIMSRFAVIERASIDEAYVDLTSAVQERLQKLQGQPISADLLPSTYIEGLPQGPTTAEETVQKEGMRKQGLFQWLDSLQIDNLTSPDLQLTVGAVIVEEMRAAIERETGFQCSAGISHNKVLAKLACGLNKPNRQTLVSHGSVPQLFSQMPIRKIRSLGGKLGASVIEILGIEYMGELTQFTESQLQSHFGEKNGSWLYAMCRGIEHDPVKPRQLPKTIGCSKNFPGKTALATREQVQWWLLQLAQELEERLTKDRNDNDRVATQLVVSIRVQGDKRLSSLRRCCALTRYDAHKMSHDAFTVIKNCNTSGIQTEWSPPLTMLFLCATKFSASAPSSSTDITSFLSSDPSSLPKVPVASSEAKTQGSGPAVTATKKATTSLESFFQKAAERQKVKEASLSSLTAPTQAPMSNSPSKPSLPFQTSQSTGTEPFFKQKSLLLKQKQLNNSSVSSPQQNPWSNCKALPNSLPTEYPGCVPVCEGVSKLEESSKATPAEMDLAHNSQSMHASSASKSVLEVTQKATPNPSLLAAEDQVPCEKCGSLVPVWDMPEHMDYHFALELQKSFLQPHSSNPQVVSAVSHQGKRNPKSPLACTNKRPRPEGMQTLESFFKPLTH
In words: co-IP; Polη (WT or T457A) with MDM2 (Supplementary Fig. 6g); format not shown.

The target in experiment [2] is T2, GFP-Polη (wild type) (human) (UniProt Q9Y253).
T2 sequence: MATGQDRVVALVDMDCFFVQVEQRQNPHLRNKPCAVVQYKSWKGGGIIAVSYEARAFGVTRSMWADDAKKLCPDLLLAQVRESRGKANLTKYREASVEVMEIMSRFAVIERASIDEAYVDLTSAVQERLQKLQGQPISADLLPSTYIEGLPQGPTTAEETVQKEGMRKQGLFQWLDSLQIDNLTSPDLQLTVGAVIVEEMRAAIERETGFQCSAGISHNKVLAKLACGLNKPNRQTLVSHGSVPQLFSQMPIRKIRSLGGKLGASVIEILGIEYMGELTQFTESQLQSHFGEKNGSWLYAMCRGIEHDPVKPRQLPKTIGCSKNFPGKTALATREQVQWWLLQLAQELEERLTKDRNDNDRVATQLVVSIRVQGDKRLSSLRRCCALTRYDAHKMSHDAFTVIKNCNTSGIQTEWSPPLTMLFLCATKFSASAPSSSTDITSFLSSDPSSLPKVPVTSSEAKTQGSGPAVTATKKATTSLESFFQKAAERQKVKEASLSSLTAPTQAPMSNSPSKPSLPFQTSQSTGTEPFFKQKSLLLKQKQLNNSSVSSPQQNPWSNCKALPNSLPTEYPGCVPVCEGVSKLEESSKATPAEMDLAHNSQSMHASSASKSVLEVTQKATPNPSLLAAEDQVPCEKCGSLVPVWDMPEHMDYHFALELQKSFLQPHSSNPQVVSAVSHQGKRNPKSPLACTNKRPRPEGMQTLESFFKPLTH
The experiment is described as above.

In experiment [3] the target is T1, GFP-Polη T457A (human). In words: co-IP; Flag-DDB1 or Flag-CDT2 and GFP-Polη (WT, T457A) transfected into 293T cells; GFP-Trap A; blots with anti-GFP and anti-Flag.
Experiment [4] addresses T2, GFP-Polη (wild type) (human). Described as above.
The next experiment has as its target T3, Flag-NPL4 (UniProt Q8TAT6).
T3 sequence: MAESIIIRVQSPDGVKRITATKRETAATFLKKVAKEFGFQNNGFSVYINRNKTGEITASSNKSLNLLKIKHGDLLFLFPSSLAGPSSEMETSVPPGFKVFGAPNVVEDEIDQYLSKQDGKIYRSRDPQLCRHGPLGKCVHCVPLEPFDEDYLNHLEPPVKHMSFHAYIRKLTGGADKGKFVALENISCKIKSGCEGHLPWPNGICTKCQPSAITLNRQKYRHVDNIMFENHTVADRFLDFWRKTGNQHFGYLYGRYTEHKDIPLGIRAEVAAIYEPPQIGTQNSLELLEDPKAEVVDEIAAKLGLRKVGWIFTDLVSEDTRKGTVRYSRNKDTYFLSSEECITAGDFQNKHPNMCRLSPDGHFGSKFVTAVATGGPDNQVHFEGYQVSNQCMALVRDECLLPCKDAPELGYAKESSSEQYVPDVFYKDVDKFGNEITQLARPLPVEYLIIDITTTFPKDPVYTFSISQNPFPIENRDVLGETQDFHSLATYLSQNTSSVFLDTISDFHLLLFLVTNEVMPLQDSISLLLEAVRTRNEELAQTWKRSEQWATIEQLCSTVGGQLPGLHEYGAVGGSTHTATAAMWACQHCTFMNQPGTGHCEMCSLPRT
In words: co-IP; Flag-UFD1 or Flag-NPL4 and GFP-Polη (WT, T457A or 5A) transfected into 293T cells; anti-Flag M2 beads; blots with anti-GFP and anti-Flag.

A further experiment deals with T4, Flag-UFD1 (UniProt Q92890).
T4 sequence: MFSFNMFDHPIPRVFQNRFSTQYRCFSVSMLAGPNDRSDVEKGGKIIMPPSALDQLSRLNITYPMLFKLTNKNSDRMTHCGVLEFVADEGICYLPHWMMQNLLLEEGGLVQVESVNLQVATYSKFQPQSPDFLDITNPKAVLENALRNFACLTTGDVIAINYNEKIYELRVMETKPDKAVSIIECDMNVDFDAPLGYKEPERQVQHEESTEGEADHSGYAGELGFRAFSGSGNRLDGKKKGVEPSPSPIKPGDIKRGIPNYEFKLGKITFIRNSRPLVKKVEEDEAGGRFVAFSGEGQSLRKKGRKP
Described as above.

These are yes or no findings as the source states them, for the method shown. Binding seen in cells or lysates may run through a third protein. Some binding calls cover weakened binding; strength is not graded here. For some assays here: Sequences can lack the tags named with a protein.

For Myc-Cul4A (from UniProt Q13619 1-759), in the experiment with Flag-CDT2, the binding result was “binds”.
On the same count and under the same terms, in the case of Myc-DDB1 (from UniProt Q16531 1-1140) it was “binds”.
On to MDM2 (from UniProt Q00987 1-491), for which the binding entry (with GFP-Polη T457A (human) [1]; in experiment [2]) was “binds” throughout.
Regarding Flag-CDT2 (from UniProt Q9NZJ0 1-730), the binding entry (with GFP-Polη T457A (human) [3]; in experiment [4]) was “binds” each time.
For Flag-DDB1 (from UniProt Q16531 1-1140), the binding entry (with GFP-Polη T457A (human) [3]; in experiment [4]) was “binds” in each case.

B1: GFP-Polη-5A (T457A/S458A/S459A/S466A/T471A) (protein, UniProt Q9Y253 1-713)
chain: MATGQDRVVALVDMDCFFVQVEQRQNPHLRNKPCAVVQYKSWKGGGIIAVSYEARAFGVTRSMWADDAKKLCPDLLLAQVRESRGKANLTKYREASVEVMEIMSRFAVIERASIDEAYVDLTSAVQERLQKLQGQPISADLLPSTYIEGLPQGPTTAEETVQKEGMRKQGLFQWLDSLQIDNLTSPDLQLTVGAVIVEEMRAAIERETGFQCSAGISHNKVLAKLACGLNKPNRQTLVSHGSVPQLFSQMPIRKIRSLGGKLGASVIEILGIEYMGELTQFTESQLQSHFGEKNGSWLYAMCRGIEHDPVKPRQLPKTIGCSKNFPGKTALATREQVQWWLLQLAQELEERLTKDRNDNDRVATQLVVSIRVQGDKRLSSLRRCCALTRYDAHKMSHDAFTVIKNCNTSGIQTEWSPPLTMLFLCATKFSASAPSSSTDITSFLSSDPSSLPKVPVAAAEAKTQGAGPAVAATKKATTSLESFFQKAAERQKVKEASLSSLTAPTQAPMSNSPSKPSLPFQTSQSTGTEPFFKQKSLLLKQKQLNNSSVSSPQQNPWSNCKALPNSLPTEYPGCVPVCEGVSKLEESSKATPAEMDLAHNSQSMHASSASKSVLEVTQKATPNPSLLAAEDQVPCEKCGSLVPVWDMPEHMDYHFALELQKSFLQPHSSNPQVVSAVSHQGKRNPKSPLACTNKRPRPEGMQTLESFFKPLTH
Take B1: the binding entry with Flag-NPL4 and with Flag-UFD1 was “binds” each time.

B2: GFP-Polη T457A (protein, UniProt Q9Y253 1-713)
chain: MATGQDRVVALVDMDCFFVQVEQRQNPHLRNKPCAVVQYKSWKGGGIIAVSYEARAFGVTRSMWADDAKKLCPDLLLAQVRESRGKANLTKYREASVEVMEIMSRFAVIERASIDEAYVDLTSAVQERLQKLQGQPISADLLPSTYIEGLPQGPTTAEETVQKEGMRKQGLFQWLDSLQIDNLTSPDLQLTVGAVIVEEMRAAIERETGFQCSAGISHNKVLAKLACGLNKPNRQTLVSHGSVPQLFSQMPIRKIRSLGGKLGASVIEILGIEYMGELTQFTESQLQSHFGEKNGSWLYAMCRGIEHDPVKPRQLPKTIGCSKNFPGKTALATREQVQWWLLQLAQELEERLTKDRNDNDRVATQLVVSIRVQGDKRLSSLRRCCALTRYDAHKMSHDAFTVIKNCNTSGIQTEWSPPLTMLFLCATKFSASAPSSSTDITSFLSSDPSSLPKVPVASSEAKTQGSGPAVTATKKATTSLESFFQKAAERQKVKEASLSSLTAPTQAPMSNSPSKPSLPFQTSQSTGTEPFFKQKSLLLKQKQLNNSSVSSPQQNPWSNCKALPNSLPTEYPGCVPVCEGVSKLEESSKATPAEMDLAHNSQSMHASSASKSVLEVTQKATPNPSLLAAEDQVPCEKCGSLVPVWDMPEHMDYHFALELQKSFLQPHSSNPQVVSAVSHQGKRNPKSPLACTNKRPRPEGMQTLESFFKPLTH
As for B2, the binding result in the experiment with Flag-NPL4 and with Flag-UFD1 was “binds” throughout.

B3: GFP-Polη (wild type) (protein, UniProt Q9Y253 1-713)
chain: MATGQDRVVALVDMDCFFVQVEQRQNPHLRNKPCAVVQYKSWKGGGIIAVSYEARAFGVTRSMWADDAKKLCPDLLLAQVRESRGKANLTKYREASVEVMEIMSRFAVIERASIDEAYVDLTSAVQERLQKLQGQPISADLLPSTYIEGLPQGPTTAEETVQKEGMRKQGLFQWLDSLQIDNLTSPDLQLTVGAVIVEEMRAAIERETGFQCSAGISHNKVLAKLACGLNKPNRQTLVSHGSVPQLFSQMPIRKIRSLGGKLGASVIEILGIEYMGELTQFTESQLQSHFGEKNGSWLYAMCRGIEHDPVKPRQLPKTIGCSKNFPGKTALATREQVQWWLLQLAQELEERLTKDRNDNDRVATQLVVSIRVQGDKRLSSLRRCCALTRYDAHKMSHDAFTVIKNCNTSGIQTEWSPPLTMLFLCATKFSASAPSSSTDITSFLSSDPSSLPKVPVTSSEAKTQGSGPAVTATKKATTSLESFFQKAAERQKVKEASLSSLTAPTQAPMSNSPSKPSLPFQTSQSTGTEPFFKQKSLLLKQKQLNNSSVSSPQQNPWSNCKALPNSLPTEYPGCVPVCEGVSKLEESSKATPAEMDLAHNSQSMHASSASKSVLEVTQKATPNPSLLAAEDQVPCEKCGSLVPVWDMPEHMDYHFALELQKSFLQPHSSNPQVVSAVSHQGKRNPKSPLACTNKRPRPEGMQTLESFFKPLTH
On to B3, for which the binding entry in the experiment with Flag-NPL4 and with Flag-UFD1 was “binds” in each case.
